# Experimental data taken from the supplement of paper PMC9015667.
# Counter-ions that a name gives are not always drawn. The list shows a part of the results. Single values are uncertain, as repeats are few or missing.
# System: M238P (parental melanoma line)
# Test: reduction in cell viability relative to untreated/vehicle; higher = more growth inhibition
# Conditions: 200 nM; 72 h
row,Structure (SMILES),reduction in cell viability
1,Oc1cc2c(cc1O)[C@@H]1c3ccc(O)c(O)c3OC[C@]1(O)C2 [Hematoxylin],< 0%
2,C[C@H]1[C@H](C)CC[C@]2(C(=O)O)CC[C@]3(C)C(=CC[C@@H]4[C@@]5(C)CC[C@H](O)C(C)(C)[C@@H]5CC[C@]43C)[C@H]12 [Ursolic acid],< 0%
3,C[C@@H](O)[C@H]1C(=O)N2C(C(=O)OCOC(=O)C(C)(C)C)=C(SC3CN(C4=NCCS4)C3)[C@H](C)[C@H]12 [Tebipenem pivoxil],< 0%
4,O=C(Nc1nnc(-c2ccco2)o1)c1cc(-c2ccccc2)nc2ccccc12,< 0%
5,CCOC(=O)/C=C/[C@H](C[C@@H]1CCNC1=O)NC(=O)[C@@H](CC(=O)[C@@H](NC(=O)c1cc(C)on1)C(C)C)Cc1ccc(F)cc1 [Rupintrivir],< 0%
6,CC(C)CC(=O)Nc1n[nH]c2c1CN(C(=O)C1CCN(C)CC1)C2(C)C,22.1%
7,Cc1nc(-c2ccc(OCC(C)C)c(C#N)c2)sc1C(=O)O [Febuxostat],< 0%
8,O=C(NC1CC1)c1cccc(-c2ccc3c(NC(=O)C4CC4)n[nH]c3c2)c1,< 0%
9,COC(=O)C1=C(C)NC(C)=C(C(=O)OCCN2CCN(C(c3ccccc3)c3ccccc3)CC2)C1c1cccc([N+](=O)[O-])c1 (centres undefined) [Manidipine dihydrochloride],< 0%
10,O=C1CCC(N2C(=O)c3ccccc3C2=O)C(=O)N1 (centres undefined) [Thalidomide],< 0%
11,CC1(C)C(=O)N(CCN2CCC(C(=O)c3ccc(F)cc3)CC2)c2ccccc21,< 0%
12,COC1=CC(c2cc3ccccc3[nH]2)=N/C1=C\c1[nH]c(C)cc1C [Obatoclax],74.4%
13,C[C@H]1c2cccc(O)c2C(=O)C2=C(O)[C@]3(O)C(=O)C(C(N)=O)=C(O)[C@@H](N(C)C)[C@@H]3[C@@H](O)[C@@H]21 [Doxycycline],< 0%
14,Cc1cn([C@H]2O[C@@H](CO)[C@H](O)[C@H]2F)c(=O)[nH]c1=O [Clevudine],< 0%
15,Cc1nc(Nc2ncc(C(=O)Nc3c(C)cccc3Cl)s2)cc(N2CCN(CCO)CC2)n1 [Dasatinib],11.9%
16,CC[N+](CC)(CC)CCOc1cccc(OCC[N+](CC)(CC)CC)c1OCC[N+](CC)(CC)CC [Gallamine triethiodide],15.5%
17,Fc1ccc(C(c2ccc(F)cc2)N2CCN(C/C=C/c3ccccc3)CC2)cc1 [Flunarizine],< 0%
18,Cc1ccc(S(=O)(=O)OCC(=O)Nc2ccc(C(=O)O)c(O)c2)cc1,< 0%
19,Clc1ccc(C2(c3ccc(-c4cn[nH]c4)cc3)CCNCC2)cc1,< 0%
20,CC(=O)O[C@@H]1[C@@H](OC(C)=O)[C@@H](O)[C@H](Oc2c(-c3ccc(O)cc3)oc3cc(O)cc(O)c3c2=O)O[C@H]1C,< 0%

row,Structure (SMILES),reduction in cell viability
1,CC(C)(O)CC(=O)NCCn1ccc2ncnc(Nc3ccc(Oc4cccc(C(F)(F)F)c4)c(Cl)c3)c21,< 0%
2,NS(=O)(=O)c1cc2c(cc1Cl)NCNS2(=O)=O [Hydrochlorothiazide],< 0%
3,C[C@@H]1COC(Nc2ccc3ncnc(Nc4ccc(OCc5nccs5)c(Cl)c4)c3c2)=N1 [Varlitinib tosylate],< 0%
4,N#C[C@@H]1C[C@@H]2C[C@@H]2N1C(=O)[C@@H](N)C12CC3CC(CC(O)(C3)C1)C2 [Saxagliptin],< 0%
5,COc1ccc(-c2nc3cc(C4=NNC(=O)CC4C)ccc3[nH]2)cc1 (centres undefined) [Pimobendan hydrochloride],< 0%
6,COc1ccc(-c2ccc3c(N4CCOC[C@@H]4C)nc(N4CCOC[C@@H]4C)nc3n2)cc1CO,60.4%
7,CC[C@H](CC#N)OC(=O)N[C@@H](C)c1cccc(NC(=O)Nc2ccc(-c3cnco3)c(OC)c2)c1,28.8%
8,Oc1ccc(-c2nc(-c3ccc(F)cc3)c(-c3ccncc3)[nH]2)cc1,< 0%
9,Fc1cc(-c2cccc3ncc(-c4cnn(C5CCNCC5)c4)nc23)cc(F)c1CN1CCOCC1,< 0%
10,c1ccc(-c2oc3ncnc(NC[C@@H]4CCCO4)c3c2-c2ccccc2)cc1,< 0%
11,CS(=O)(=O)N(Cc1ccco1)C[C@@H](O)Cn1c2ccccc2c2ccccc21,< 0%
12,Cn1cc(-c2ccncc2)c(-c2ccc(OCc3ccc4ccccc4n3)cc2)n1,< 0%
13,CC(C)CN(C[C@@H](O)[C@H](Cc1ccccc1)NC(=O)O[C@H]1CCOC1)S(=O)(=O)c1ccc(N)cc1 [Amprenavir],< 0%
14,CNC(=O)c1ccc2cc([C@@]3(O)CCn4cncc43)ccc2c1 [Orteronel],< 0%
15,CCN(CC)CCCCNc1ncc2c(n1)N(C)C(=O)N(c1c(Cl)c(OC)cc(OC)c1Cl)C2,< 0%
16,CCOC(=O)N1c2ccc(C(F)(F)F)cc2[C@@H](N(Cc2cc(C(F)(F)F)cc(C(F)(F)F)c2)C(=O)OC)C[C@H]1CC [Torcetrapib],< 0%
17,CC(C)(C)c1[nH]cnc1/C=c1\[nH]c(=O)/c(=C/c2ccccc2)[nH]c1=O [Plinabulin],61.9%
18,COc1cccc2c1C(=O)c1c(O)c3c(c(O)c1C2=O)C[C@@](O)(C(=O)CO)C[C@@H]3O[C@H]1C[C@H](N)[C@H](O[C@@H]2CCCCO2)[C@H](C)O1 [Pirarubicin],< 0%
19,COC(c1ccccc1)(c1ccccc1)[C@H](Oc1nc(C)cc(C)n1)C(=O)O [Ambrisentan],2.8%
